Results taken from paper PMC5224924.
These are yes or no findings as the source states them, for the method shown. Binding seen in cells or lysates may run through a third protein. Some entries that bind do so weakly or less than the wild type.

By UniProt entry, the sequences of proteins in these tests, tags left out. Residues count along the entry.
UniProt P62812, residues 28-455: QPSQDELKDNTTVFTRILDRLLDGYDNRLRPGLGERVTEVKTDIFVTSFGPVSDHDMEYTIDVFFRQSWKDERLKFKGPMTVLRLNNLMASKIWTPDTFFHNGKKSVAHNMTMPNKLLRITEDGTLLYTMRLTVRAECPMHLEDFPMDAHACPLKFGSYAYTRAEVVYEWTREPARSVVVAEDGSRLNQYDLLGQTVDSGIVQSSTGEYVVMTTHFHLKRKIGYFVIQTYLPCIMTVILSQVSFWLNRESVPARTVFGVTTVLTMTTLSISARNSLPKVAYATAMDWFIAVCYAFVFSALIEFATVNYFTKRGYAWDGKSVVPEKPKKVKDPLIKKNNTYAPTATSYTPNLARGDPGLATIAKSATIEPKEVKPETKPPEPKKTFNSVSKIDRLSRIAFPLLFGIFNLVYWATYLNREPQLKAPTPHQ

Tests used:
[1] = target: full length human APP (hAPP695) (human) (UniProt P05067); test: co-IP; HEK293 cells co-transfected; lysis buffer 50 mM Tris pH 7.5, 150 mM NaCl, 1 mM EDTA, 1% NP40; anti-KCC2, APPc or anti-GABAAR α1 antibody at 4°C overnight, protein A agarose; rabbit or mouse IgG as control; western blot
[2] = target: GABAA receptor α1 subunit (UniProt P62812); test: as above

B1: K+-Cl- cotransporter KCC2 (protein, UniProt Q63633-2 1-1116)
chain: MLNNLTDCEDGDGGANPGDGNPKESSPFINSTDTEKGREYDGRNMALFEEEMDTSPMVSSLLSGLANYTNLPQGSKEHEEAENNEGGKKKPVQAPRMGTFMGVYLPCLQNIFGVILFLRLTWVVGIAGIMESFCMVFICCSCTMLTAISMSAIATNGVVPAGGSYYMISRSLGPEFGGAVGLCFYLGTTFAGAMYILGTIEILLAYLFPAMAIFKAEDASGEAAAMLNNMRVYGTCVLTCMATVVFVGVKYVNKFALVFLGCVILSILAIYAGVIKSAFDPPNFPICLLGNRTLSRHGFDVCAKLAWEGNETVTTRLWGLFCSSRLLNATCDEYFTRNNVTEIQGIPGAASGLIKENLWSSYLTKGVIVERRGMPSVGLADGTPVDMDHPYVFSDMTSYFTLLVGIYFPSVTGIMAGSNRSGDLRDAQKSIPTGTILAIATTSAVYISSVVLFGACIEGVVLRDKFGEAVNGNLVVGTLAWPSPWVIVIGSFFSTCGAGLQSLTGAPRLLQAISRDGIVPFLQVFGHGKANGEPTWALLLTACICEIGILIASLDEVAPILSMFFLMCYMFVNLACAVQTLLRTPNWRPRFRYYHWTLSFLGMSLCLALMFICSWYYALVAMLIAGLIYKYIEYRGAEKEWGDGIRGLSLSAARYALLRLEEGPPHTKNWRPQLLVLVRVDQDQNVVHPQLLSLTSQLKAGKGLTIVGSVLEGTFLDNHPQAQRAEESIRRLMEAEKVKGFCQVVISSNLRDGVSHLIQSGGLGGLQHNTVLVGWPRNWRQKEDHQTWRNFIELVRETTAGHLALLVTKNVSMFPGNPERFSEGSIDVWWIVHDGGMLMLLPFLLRHHKVWRKCKMRIFTVAQMDDNSIQMKKDLTTFLYHLRITAEVEVVEMHESDISAYTYEKTLVMEQRSQILKQMHLTKNEREREIQSITDESRGSIRRKNPANTRLRLNVPEETACDNEEKPEEEVQLIHDQSAPSCPSSSPSPGEEPEGEGETDPEKVHLTWTKDKSAAQKNKGPSPVSSEGIKDFFSMKPEWENLNQSNVRRMHTAVRLNEVIVNKSRDAKLVLLNMPGPPRNRNGDENYMEFLEVLTEQLDRVMLVRGGGREVITIYS
Question: Which binding [1] does the source give for B1 here?
Answer: binds

Question: And the binding [2]?
Answer: no binding
